Source: PubChem BioAssay (NCATS)
Where “and” joins values, the source holds several entries; their conditions need not be identical. Identical values can stand only once. Some of the results follow. The main result of the screen is listed elsewhere. These columns were measured beside it and carry no call. The list favours compounds with an active or inconclusive main result. Potencies come from curve fits of mixed quality, noted in brackets.

Assay: qHTS assay for small molecule antagonists of androgen receptor signaling (AID 588516)
Settings: AR-UAS-bla HEK293, beta-lactamase ratio, antagonist mode, 16 h; measured here: W460 blue channel fit
How it was run: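 Cells were plated and incubated 5 h, compounds added in titration, then R1881 (10 nM final) as agonist. After 16 h at 37 C, CCF4 substrate was loaded for 2 h at room temperature and fluorescence measured.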
With `CCC(=O)C1C(=O)CC(C(=O)O)CC1=O` (centres undefined) the AC50 was 0.0355 µM [rising, full curve, poor fit].
For `Nc1nc2ccc([N+](=O)[O-])cc2s1`, the AC50 was 39.8 µM [falling, partial curve, poor fit].
In the case of `C[C@@H]1CC2(OC3C[C@@]4(C)C5=CC[C@H]6C(C)(C)C(O[C@@H]7OC[C@@H](O)[C@H](O)[C@H]7O)CC[C@@]67C[C@@]57CC[C@]4(C)C31)OC(O)C1(C)OC21` (some centres undefined), the AC50 is reported as 44.7 µM [falling, partial curve, poor fit].
For `CC(=O)Nc1ccc(N)cc1`, the AC50 was 0.112 µM [falling, full curve, poor fit].
In the case of `C=C1C(CCl)(CCl)C2(Cl)C(Cl)C(Cl)C1(Cl)C2(Cl)Cl` (centres undefined), the AC50 is reported as 44.7 µM [falling, partial curve, poor fit].
In the case of `O=C(O)/C=C/c1ccc(/C=C/C(=O)O)cc1`, the AC50 is reported as 0.0282 µM [falling, full curve, poor fit].
For `CCC(C)Nc1ccc(NC(C)CC)cc1` (centres undefined), the AC50 was 35.5 µM [falling, partial curve].
With `C[C@@H]1CC2(OC(O)[C@]3(C)O[C@H]23)O[C@H]2C[C@@]3(C)[C@@H]4CC[C@H]5C(C)(C)C(O[C@@H]6OC[C@@H](O)[C@H](O)[C@H]6O)CC[C@@]56C[C@@]46CC[C@]3(C)[C@@H]12` (some centres undefined) the AC50 was 50.1 µM [falling, single point].
For `Cc1nn(C)c(Oc2ccccc2)c1/C=N/OCc1ccc(C(=O)OC(C)(C)C)cc1`, the AC50 was 35.5 µM [falling, partial curve, poor fit].
For `CC(=O)Nc1ccc(C(=O)CCl)cc1`, the AC50 was 50.1 µM [falling, single point].
With `C1CCC2OC2C1` (centres undefined) the AC50 was 50.1 µM [falling, partial curve, poor fit].
In the case of `C[C@]12CCC(=O)C=C1CC[C@@H]1[C@@H]2[C@@H](O)C[C@]2(C=O)[C@@H](C(=O)CO)CC[C@@H]12`, the AC50 is reported as 25.1 µM [falling, partial curve, poor fit].
For `CCNc1ccccc1`, the AC50 was 0.0447 µM [falling, full curve, poor fit].
In the case of `CC(C)CCCCCCc1ccc(OCCOCCO)cc1`, the AC50 is reported as 50.1 µM [falling, single point].
In the case of `C=CC(=O)OCCCCCCOC(=O)C=C`, the AC50 is reported as 50.1 µM [falling, partial curve, poor fit] and 15.8 µM [falling, full curve, poor fit].
With `Nc1c(N=Nc2ccc(S(=O)(=O)CCOS(=O)(=O)O)cc2)c(S(=O)(=O)O)cc2cc(S(=O)(=O)O)c(N=Nc3ccc(S(=O)(=O)CCOS(=O)(=O)O)cc3)c(O)c12` the AC50 was 0.00126 µM [falling, full curve, poor fit].
With `C[C@@H]1CC2(OC[C@]3(C)O[C@H]23)O[C@H]2C[C@@]3(C)[C@@H]4CC[C@H]5C(C)(C)C(O[C@@H]6OC[C@@H](O)[C@H](O)[C@H]6O)CC[C@@]56C[C@@]46CC[C@]3(C)[C@@H]12` (some centres undefined) the AC50 was 0.0316 µM [falling, full curve, poor fit].
In the case of `C[Si](C)(C)Cl`, the AC50 is reported as 50.1 µM [rising, single point].
For `Cc1cc(=O)oc2cc(O)cc(O)c12`, the AC50 was 44.7 µM [rising, partial curve].
For `OCCO`, the AC50 was 31.6 µM [falling, partial curve, poor fit].
With `COc1ccc(C(=O)c2ccccc2)c(O)c1` the AC50 was 0.0126 µM [falling, full curve, poor fit].
In the case of `Nc1ccc(F)cc1F`, the AC50 is reported as 44.7 µM [falling, single point].
For `COC(=O)c1ccc(CNS(C)(=O)=O)cc1S(=O)(=O)NC(=O)Nc1nc(OC)cc(OC)n1`, the AC50 was 0.447 µM [falling, full curve, poor fit].
In the case of `CO/N=C1\C[C@]2(C[C@@H]3C[C@@H](C/C=C(\C)C[C@@H](C)/C=C/C=C4\CO[C@@H]5[C@H](O)C(C)=C[C@@H](C(=O)O3)[C@]45O)O2)O[C@H](/C(C)=C/C(C)C)[C@H]1C`, the AC50 is reported as 28.2 µM [falling, partial curve].
